{"sequences": {"note": "Protein sequences, listed by entry. Tags and fused reporters are not part of them. Lines headed by an entry give the natural chain unless they say otherwise; changes in a name come on top.", "UniProt Q01892": "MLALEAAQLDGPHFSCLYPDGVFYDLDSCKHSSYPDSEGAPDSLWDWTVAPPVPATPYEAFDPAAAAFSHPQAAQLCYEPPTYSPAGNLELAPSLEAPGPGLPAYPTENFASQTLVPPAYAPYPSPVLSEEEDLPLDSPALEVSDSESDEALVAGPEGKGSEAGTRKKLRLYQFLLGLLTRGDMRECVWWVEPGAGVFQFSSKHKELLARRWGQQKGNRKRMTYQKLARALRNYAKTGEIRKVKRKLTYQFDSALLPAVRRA", "UniProt Q99607": "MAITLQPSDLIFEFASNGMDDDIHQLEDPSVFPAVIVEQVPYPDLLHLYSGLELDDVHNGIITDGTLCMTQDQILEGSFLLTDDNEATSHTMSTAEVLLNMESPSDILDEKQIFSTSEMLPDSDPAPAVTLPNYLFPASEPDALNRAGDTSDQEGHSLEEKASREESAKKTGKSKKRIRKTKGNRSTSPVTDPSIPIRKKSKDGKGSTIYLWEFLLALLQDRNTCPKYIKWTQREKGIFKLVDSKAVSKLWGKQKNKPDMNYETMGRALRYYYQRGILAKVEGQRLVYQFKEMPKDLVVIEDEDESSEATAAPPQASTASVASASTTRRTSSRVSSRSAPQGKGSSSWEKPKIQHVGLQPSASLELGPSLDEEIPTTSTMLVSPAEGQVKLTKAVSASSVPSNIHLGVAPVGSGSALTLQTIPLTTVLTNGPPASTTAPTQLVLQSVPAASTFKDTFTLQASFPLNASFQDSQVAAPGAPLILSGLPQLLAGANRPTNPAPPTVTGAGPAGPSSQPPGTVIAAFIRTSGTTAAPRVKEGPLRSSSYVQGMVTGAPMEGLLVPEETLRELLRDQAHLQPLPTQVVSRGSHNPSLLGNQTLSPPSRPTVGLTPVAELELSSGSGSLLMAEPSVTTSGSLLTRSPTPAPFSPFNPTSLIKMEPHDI"}, "source": "paper PMC7862700", "assay_in_all_cases": "DAPPL (digital affinity profiling via proximity ligation, sequencing)", "conditions_in_all_cases": "10 mM Tris-HCl pH 7.5, 50 mM NaCl, 1 mM DTT, 4% glycerol, room temperature, 30 min; GST-TFs on glutathione beads, 16-mer random dsDNA library, 0.1% …; high values mean tight binding; double strand, one strand shown; scale: fold enrichment (6-mer frequency, TF over GST control)", "key": {"[1]": {"target": "T1, FLI1 (UniProt Q01543)", "T1 sequence": "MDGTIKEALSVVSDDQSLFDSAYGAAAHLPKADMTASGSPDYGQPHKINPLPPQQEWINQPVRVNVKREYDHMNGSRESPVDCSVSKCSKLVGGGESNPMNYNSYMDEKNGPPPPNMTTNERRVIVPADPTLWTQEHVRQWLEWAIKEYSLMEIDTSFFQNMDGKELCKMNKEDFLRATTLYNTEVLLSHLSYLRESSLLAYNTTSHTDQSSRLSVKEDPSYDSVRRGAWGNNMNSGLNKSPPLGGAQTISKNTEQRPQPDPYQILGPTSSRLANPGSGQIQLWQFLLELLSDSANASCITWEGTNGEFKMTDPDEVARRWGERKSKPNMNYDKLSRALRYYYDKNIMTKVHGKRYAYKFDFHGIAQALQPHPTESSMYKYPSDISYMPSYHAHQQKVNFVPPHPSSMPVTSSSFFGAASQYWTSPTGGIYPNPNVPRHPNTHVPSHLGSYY"}, "[2]": {"target": "SPIB (UniProt Q01892)"}, "[3]": {"target": "ELF4 (UniProt Q99607)"}, "[4]": {"target": "T2, ETV2 (UniProt O00321)", "T2 sequence": "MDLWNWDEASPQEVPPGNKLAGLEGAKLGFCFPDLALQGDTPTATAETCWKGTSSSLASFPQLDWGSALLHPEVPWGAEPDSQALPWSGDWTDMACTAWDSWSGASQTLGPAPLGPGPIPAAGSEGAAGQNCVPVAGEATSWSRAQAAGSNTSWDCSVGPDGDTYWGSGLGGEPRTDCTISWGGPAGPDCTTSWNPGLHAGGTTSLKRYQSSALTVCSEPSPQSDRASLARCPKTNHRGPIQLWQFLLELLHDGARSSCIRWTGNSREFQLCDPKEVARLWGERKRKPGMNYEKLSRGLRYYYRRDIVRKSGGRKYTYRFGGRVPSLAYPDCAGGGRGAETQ"}, "[5]": {"target": "T3, ETV3L (UniProt Q6ZN32)", "T3 sequence": "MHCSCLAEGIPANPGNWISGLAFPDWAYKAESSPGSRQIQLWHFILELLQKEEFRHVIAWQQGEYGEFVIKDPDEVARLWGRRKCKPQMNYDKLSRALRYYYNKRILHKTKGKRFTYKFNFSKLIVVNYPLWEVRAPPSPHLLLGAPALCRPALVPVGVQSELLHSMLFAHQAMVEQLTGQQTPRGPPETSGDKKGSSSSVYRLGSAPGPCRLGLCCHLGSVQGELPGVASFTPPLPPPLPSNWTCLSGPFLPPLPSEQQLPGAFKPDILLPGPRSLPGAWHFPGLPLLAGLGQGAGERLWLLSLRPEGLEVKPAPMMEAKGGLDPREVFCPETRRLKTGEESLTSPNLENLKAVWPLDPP"}, "[6]": {"target": "T4, EHF (UniProt Q9NZC4)", "T4 sequence": "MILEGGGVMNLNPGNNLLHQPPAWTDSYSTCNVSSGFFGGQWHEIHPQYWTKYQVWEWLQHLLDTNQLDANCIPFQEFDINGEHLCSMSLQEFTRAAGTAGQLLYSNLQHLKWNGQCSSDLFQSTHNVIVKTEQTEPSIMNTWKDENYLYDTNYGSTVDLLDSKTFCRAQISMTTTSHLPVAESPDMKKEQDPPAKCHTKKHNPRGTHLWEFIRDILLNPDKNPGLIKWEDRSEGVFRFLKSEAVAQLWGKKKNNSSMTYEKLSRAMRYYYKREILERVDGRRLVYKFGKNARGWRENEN"}}, "note": "The entries are a selection whose mix differs from that of the whole data set. At the low end of the ranking, values are background and their order means little.", "data": [{"sequence": "TGGCGA", "values": [{"measurement": "binding signal", "setting": "[1]", "result": 0.973}, {"measurement": "binding signal", "setting": "[2]", "result": 0.959}, {"measurement": "binding signal", "setting": "[3]", "result": 0.936}, {"measurement": "binding signal", "setting": "[4]", "result": 0.806}, {"measurement": "binding signal", "setting": "[5]", "result": 0.989}]}, {"sequence": "AGATAA", "values": [{"measurement": "binding signal", "setting": "[1]", "result": 1.09}, {"measurement": "binding signal", "setting": "[3]", "result": 1.09}, {"measurement": "binding signal", "setting": "[5]", "result": 1.09}]}, {"sequence": "CAGTTC", "values": [{"measurement": "binding signal", "setting": "[1]", "result": 0.909}, {"measurement": "binding signal", "setting": "[6]", "result": 1.02}, {"measurement": "binding signal", "setting": "[3]", "result": 0.973}, {"measurement": "binding signal", "setting": "[4]", "result": 0.848}]}, {"sequence": "CTCTCC", "values": [{"measurement": "binding signal", "setting": "[1]", "result": 1.35}, {"measurement": "binding signal", "setting": "[6]", "result": 1.34}, {"measurement": "binding signal", "setting": "[3]", "result": 1.5}, {"measurement": "binding signal", "setting": "[5]", "result": 1.44}]}, {"sequence": "GGATAC", "values": [{"measurement": "binding signal", "setting": "[1]", "result": 0.98}, {"measurement": "binding signal", "setting": "[3]", "result": 0.978}, {"measurement": "binding signal", "setting": "[5]", "result": 0.988}]}, {"sequence": "GAAACC", "values": [{"measurement": "binding signal", "setting": "[1]", "result": 0.866}, {"measurement": "binding signal", "setting": "[6]", "result": 1.04}, {"measurement": "binding signal", "setting": "[2]", "result": 0.957}, {"measurement": "binding signal", "setting": "[3]", "result": 0.967}, {"measurement": "binding signal", "setting": "[5]", "result": 0.894}]}, {"sequence": "AGCGGC", "values": [{"measurement": "binding signal", "setting": "[1]", "result": 0.99}, {"measurement": "binding signal", "setting": "[6]", "result": 0.941}, {"measurement": "binding signal", "setting": "[2]", "result": 0.878}, {"measurement": "binding signal", "setting": "[3]", "result": 0.953}, {"measurement": "binding signal", "setting": "[4]", "result": 0.984}]}, {"sequence": "GCTAGA", "values": [{"measurement": "binding signal", "setting": "[1]", "result": 0.919}, {"measurement": "binding signal", "setting": "[6]", "result": 0.899}, {"measurement": "binding signal", "setting": "[2]", "result": 0.912}, {"measurement": "binding signal", "setting": "[3]", "result": 0.954}, {"measurement": "binding signal", "setting": "[4]", "result": 0.951}]}, {"sequence": "GGTGGT", "values": [{"measurement": "binding signal", "setting": "[1]", "result": 1.05}, {"measurement": "binding signal", "setting": "[6]", "result": 0.9}, {"measurement": "binding signal", "setting": "[3]", "result": 0.986}, {"measurement": "binding signal", "setting": "[4]", "result": 0.987}]}, {"sequence": "ATCAAA", "values": [{"measurement": "binding signal", "setting": "[1]", "result": 0.987}, {"measurement": "binding signal", "setting": "[6]", "result": 0.999}, {"measurement": "binding signal", "setting": "[3]", "result": 1.12}, {"measurement": "binding signal", "setting": "[4]", "result": 1.11}]}, {"sequence": "CTAGCA", "values": [{"measurement": "binding signal", "setting": "[1]", "result": 1.28}, {"measurement": "binding signal", "setting": "[3]", "result": 1.3}, {"measurement": "binding signal", "setting": "[5]", "result": 1.28}]}, {"sequence": "ACGGTT", "values": [{"measurement": "binding signal", "setting": "[1]", "result": 1.07}, {"measurement": "binding signal", "setting": "[3]", "result": 0.981}, {"measurement": "binding signal", "setting": "[5]", "result": 0.928}]}, {"sequence": "CCTCAG", "values": [{"measurement": "binding signal", "setting": "[1]", "result": 1.17}, {"measurement": "binding signal", "setting": "[2]", "result": 1.35}, {"measurement": "binding signal", "setting": "[3]", "result": 1.3}, {"measurement": "binding signal", "setting": "[4]", "result": 1.37}]}, {"sequence": "ACACGG", "values": [{"measurement": "binding signal", "setting": "[1]", "result": 0.998}, {"measurement": "binding signal", "setting": "[6]", "result": 1.05}, {"measurement": "binding signal", "setting": "[2]", "result": 1.1}, {"measurement": "binding signal", "setting": "[3]", "result": 1.05}, {"measurement": "binding signal", "setting": "[4]", "result": 0.921}]}, {"sequence": "TCATGG", "values": [{"measurement": "binding signal", "setting": "[1]", "result": 1.11}, {"measurement": "binding signal", "setting": "[3]", "result": 1.07}, {"measurement": "binding signal", "setting": "[5]", "result": 1.05}]}, {"sequence": "ATCTTG", "values": [{"measurement": "binding signal", "setting": "[1]", "result": 1.35}, {"measurement": "binding signal", "setting": "[6]", "result": 1.35}, {"measurement": "binding signal", "setting": "[4]", "result": 1.35}]}, {"sequence": "ACAAGA", "values": [{"measurement": "binding signal", "setting": "[1]", "result": 0.905}, {"measurement": "binding signal", "setting": "[6]", "result": 0.925}, {"measurement": "binding signal", "setting": "[2]", "result": 0.821}, {"measurement": "binding signal", "setting": "[4]", "result": 0.976}, {"measurement": "binding signal", "setting": "[5]", "result": 0.959}]}, {"sequence": "AACACT", "values": [{"measurement": "binding signal", "setting": "[1]", "result": 1.27}, {"measurement": "binding signal", "setting": "[6]", "result": 1.35}, {"measurement": "binding signal", "setting": "[4]", "result": 1.26}]}, {"sequence": "CTTGCG", "values": [{"measurement": "binding signal", "setting": "[1]", "result": 1.44}, {"measurement": "binding signal", "setting": "[6]", "result": 1.41}, {"measurement": "binding signal", "setting": "[4]", "result": 1.29}, {"measurement": "binding signal", "setting": "[5]", "result": 1.39}]}, {"sequence": "AGAAGT", "values": [{"measurement": "binding signal", "setting": "[1]", "result": 0.973}, {"measurement": "binding signal", "setting": "[2]", "result": 0.968}, {"measurement": "binding signal", "setting": "[4]", "result": 1.03}, {"measurement": "binding signal", "setting": "[5]", "result": 0.947}]}, {"sequence": "TCACCA", "values": [{"measurement": "binding signal", "setting": "[1]", "result": 1.18}, {"measurement": "binding signal", "setting": "[6]", "result": 1.06}, {"measurement": "binding signal", "setting": "[4]", "result": 1.32}, {"measurement": "binding signal", "setting": "[5]", "result": 1.16}]}, {"sequence": "CAAACC", "values": [{"measurement": "binding signal", "setting": "[1]", "result": 1.16}, {"measurement": "binding signal", "setting": "[2]", "result": 1.06}, {"measurement": "binding signal", "setting": "[4]", "result": 1.12}, {"measurement": "binding signal", "setting": "[5]", "result": 1.18}]}, {"sequence": "CTTAAA", "values": [{"measurement": "binding signal", "setting": "[1]", "result": 1.12}, {"measurement": "binding signal", "setting": "[4]", "result": 1.1}, {"measurement": "binding signal", "setting": "[5]", "result": 1.3}]}, {"sequence": "TGCCGA", "values": [{"measurement": "binding signal", "setting": "[1]", "result": 1.07}, {"measurement": "binding signal", "setting": "[6]", "result": 1.24}, {"measurement": "binding signal", "setting": "[4]", "result": 1.08}]}, {"sequence": "TGGGTG", "values": [{"measurement": "binding signal", "setting": "[1]", "result": 0.882}, {"measurement": "binding signal", "setting": "[2]", "result": 0.979}, {"measurement": "binding signal", "setting": "[4]", "result": 0.969}, {"measurement": "binding signal", "setting": "[5]", "result": 1.08}]}]}
